From US20020018783A1
No constants are given. Whether binding was seen depends on the method and setting. In cells and extracts the contact can be indirect. Some entries that bind do so weakly or less than the wild type.

By UniProt entry, the sequences of proteins in these tests, tags left out. Residues count along the entry.
UniProt P27986: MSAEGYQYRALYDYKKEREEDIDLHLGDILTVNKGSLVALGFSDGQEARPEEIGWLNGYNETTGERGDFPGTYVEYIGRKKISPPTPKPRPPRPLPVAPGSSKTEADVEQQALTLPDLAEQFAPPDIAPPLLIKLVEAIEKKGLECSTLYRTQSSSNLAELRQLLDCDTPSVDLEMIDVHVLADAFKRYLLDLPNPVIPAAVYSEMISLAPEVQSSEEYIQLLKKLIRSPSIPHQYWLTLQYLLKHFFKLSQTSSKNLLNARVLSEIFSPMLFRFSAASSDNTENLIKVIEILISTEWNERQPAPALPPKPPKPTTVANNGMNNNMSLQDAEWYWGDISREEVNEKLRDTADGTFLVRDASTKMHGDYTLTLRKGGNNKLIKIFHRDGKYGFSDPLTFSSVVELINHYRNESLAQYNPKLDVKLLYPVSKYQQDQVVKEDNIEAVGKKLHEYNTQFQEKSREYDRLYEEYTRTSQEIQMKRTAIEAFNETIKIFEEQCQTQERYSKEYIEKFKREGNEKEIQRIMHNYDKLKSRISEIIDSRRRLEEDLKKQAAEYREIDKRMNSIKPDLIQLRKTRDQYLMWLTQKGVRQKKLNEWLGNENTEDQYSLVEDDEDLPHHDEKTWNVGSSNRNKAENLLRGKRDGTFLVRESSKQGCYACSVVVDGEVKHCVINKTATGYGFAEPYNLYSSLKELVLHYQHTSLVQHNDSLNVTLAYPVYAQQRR
UniProt P10747, residues 19-220: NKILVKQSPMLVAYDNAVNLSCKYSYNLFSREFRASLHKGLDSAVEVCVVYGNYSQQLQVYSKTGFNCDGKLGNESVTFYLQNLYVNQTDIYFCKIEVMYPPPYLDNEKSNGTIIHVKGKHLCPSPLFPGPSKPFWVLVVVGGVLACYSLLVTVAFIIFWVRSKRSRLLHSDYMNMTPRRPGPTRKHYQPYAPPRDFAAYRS

Molecular target: p85 subunit of the PI3-kinase (human) (UniProt P27986)
Assay: co-immunoprecipitation, anti-p85 immunoblot, Jurkat cells

endogenous CD28 (human, on Jurkat cells and primary T lymphocytes) (from UniProt P10747 19-220) (receptor)
binding: binds
